Laboratory results reported in paper PMC7381282.
No constants are given. Whether binding was seen depends on the method and setting. In cells and extracts the contact can be indirect. Some results given as binding are weak or reduced against the parent protein; the word gives no strength. For part of these data: Sequences can lack the tags named with a protein.

Amino acid sequences for entries named in this document (tags omitted). Residues count along the entry.
UniProt O73885: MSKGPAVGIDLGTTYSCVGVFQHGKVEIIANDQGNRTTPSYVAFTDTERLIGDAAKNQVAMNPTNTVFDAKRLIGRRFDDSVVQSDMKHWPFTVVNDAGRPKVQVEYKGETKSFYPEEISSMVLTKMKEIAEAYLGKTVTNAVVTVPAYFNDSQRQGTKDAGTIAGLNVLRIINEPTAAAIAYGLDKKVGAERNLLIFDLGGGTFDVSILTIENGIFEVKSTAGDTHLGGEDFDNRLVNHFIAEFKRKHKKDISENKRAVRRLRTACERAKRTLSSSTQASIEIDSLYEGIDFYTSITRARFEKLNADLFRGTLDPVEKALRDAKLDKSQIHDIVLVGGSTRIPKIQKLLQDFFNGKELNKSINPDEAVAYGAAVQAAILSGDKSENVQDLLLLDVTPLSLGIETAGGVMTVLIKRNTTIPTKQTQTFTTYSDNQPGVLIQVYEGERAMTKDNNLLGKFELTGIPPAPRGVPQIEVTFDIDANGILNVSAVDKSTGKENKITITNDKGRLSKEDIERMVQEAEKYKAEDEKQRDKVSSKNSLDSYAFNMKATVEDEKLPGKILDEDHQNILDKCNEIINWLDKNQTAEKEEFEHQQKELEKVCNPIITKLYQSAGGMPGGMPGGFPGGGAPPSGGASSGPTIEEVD
UniProt P11142: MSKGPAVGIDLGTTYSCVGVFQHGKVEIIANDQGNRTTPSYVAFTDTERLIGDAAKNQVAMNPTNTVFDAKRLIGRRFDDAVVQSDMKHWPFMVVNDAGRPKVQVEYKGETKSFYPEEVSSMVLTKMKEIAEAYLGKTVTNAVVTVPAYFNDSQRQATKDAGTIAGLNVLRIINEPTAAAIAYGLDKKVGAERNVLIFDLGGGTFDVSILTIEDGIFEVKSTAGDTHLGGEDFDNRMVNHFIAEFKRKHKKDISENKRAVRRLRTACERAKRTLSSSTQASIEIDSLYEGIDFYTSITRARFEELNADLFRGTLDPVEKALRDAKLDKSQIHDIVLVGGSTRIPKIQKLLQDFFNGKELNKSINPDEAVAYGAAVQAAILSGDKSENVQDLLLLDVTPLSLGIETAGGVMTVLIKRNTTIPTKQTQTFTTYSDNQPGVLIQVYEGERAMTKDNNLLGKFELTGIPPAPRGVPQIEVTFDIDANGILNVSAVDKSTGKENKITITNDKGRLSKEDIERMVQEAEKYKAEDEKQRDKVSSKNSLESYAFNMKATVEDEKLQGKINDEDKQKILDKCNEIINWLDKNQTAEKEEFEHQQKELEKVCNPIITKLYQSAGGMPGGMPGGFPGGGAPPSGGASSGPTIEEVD
UniProt P11223, residues 19-272: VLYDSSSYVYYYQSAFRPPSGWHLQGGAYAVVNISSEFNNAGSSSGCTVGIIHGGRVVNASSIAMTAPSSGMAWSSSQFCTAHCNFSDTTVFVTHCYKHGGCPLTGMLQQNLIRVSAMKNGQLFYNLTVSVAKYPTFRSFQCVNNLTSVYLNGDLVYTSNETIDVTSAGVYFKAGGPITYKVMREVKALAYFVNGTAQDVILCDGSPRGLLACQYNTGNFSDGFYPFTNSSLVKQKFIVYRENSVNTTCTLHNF

Key:
[1] = target: IBV M41 spike protein (infectious bronchitis virus (IBV) strain M41) (UniProt P12651); experiment: co-IP; M41-infected CEK cells, immunoprecipitation with mAb 1H1 to IBV S or mouse IgG; immunoblots with mAbs to IBV S1 and HSPA8
[2] = target: T1, EGFP-C3-M41-RBD (infectious bronchitis virus (IBV) strain M41) (UniProt P12651); experiment: co-IP; reciprocal: 293T cells cotransfected; GFP-tagged M41-RBD immunoprecipitated with GFP antibody, Sepharose A/G beads; Western blot with anti-flag and anti-GFP
T1 sequence: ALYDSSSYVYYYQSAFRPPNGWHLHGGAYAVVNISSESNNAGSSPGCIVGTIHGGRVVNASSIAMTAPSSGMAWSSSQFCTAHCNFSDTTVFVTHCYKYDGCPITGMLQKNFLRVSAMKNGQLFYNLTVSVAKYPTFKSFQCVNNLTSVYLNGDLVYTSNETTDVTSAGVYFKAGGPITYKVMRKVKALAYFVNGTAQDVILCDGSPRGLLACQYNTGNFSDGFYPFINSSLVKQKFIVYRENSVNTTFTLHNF

[3] = target: flag-n-HSPA8 (chicken HSPA8) (chicken) (UniProt O73885); experiment: co-IP; 293T cells cotransfected; flag-tagged HSPA8 immunoprecipitated with flag antibody, Sepharose A/G beads; Western blot with anti-flag and anti-GFP
flag-human-HSPA8 (human) = flag-human-HSPA8 (human) (UniProt P11142); experiment: as above
[4] = target: GST-HSPA8 (not stated (chicken, human or pig HSPA8 cloned)) (UniProt O73885); experiment: pull-down; GST or GST-HSPA8 bound to glutathione-sepharose beads, incubated 12 h at 4°C with lysates of 293T cells transfected with EGFP-C3-M41-RBD; Western blot with antibodies against GST and GFP; only the target purified

Molecule: heat shock protein member 8 (HSPA8), chicken, endogenous (from UniProt O73885 1-646)
- binding [1]: binds

Molecule: flag-n-HSPA8 (chicken HSPA8) (from UniProt O73885 1-646)
- binding [2]: binds

Molecule: EGFP-C3-BD-253 (from UniProt P11223 19-272) (domain or fragment)
- binding [3]: binds

B1: EGFP-C3-M41-RBD (domain or fragment, UniProt P12651 19-272)
chain: ALYDSSSYVYYYQSAFRPPNGWHLHGGAYAVVNISSESNNAGSSPGCIVGTIHGGRVVNASSIAMTAPSSGMAWSSSQFCTAHCNFSDTTVFVTHCYKYDGCPITGMLQKNFLRVSAMKNGQLFYNLTVSVAKYPTFKSFQCVNNLTSVYLNGDLVYTSNETTDVTSAGVYFKAGGPITYKVMRKVKALAYFVNGTAQDVILCDGSPRGLLACQYNTGNFSDGFYPFINSSLVKQKFIVYRENSVNTTFTLHNF
- binding (flag-human-HSPA8 (human)): binds
- binding [3]: binds
- binding [4]: binds
